Source: patent publication US11999702B1, “4,5-bis(4-chlorophenyl)-1-hexyl-2-(3,4-dimethoxyphenyl)-1H-imidazole as an antimicrobial compound” (KING FAISAL UNIVERSITY, priority 2023, dated 2024)
At least one compound was matched to its structure with a doubt left.

Legend:
Format in all cases: cell-based
Escherichia coli = test: Antimicrobial testing by agar dilution, Escherichia coli; conditions: E. Coli
Method: (§1) The antimicrobial properties of the 4,5-bis(4-chlorophenyl)-1-hexyl-2-(3,4-dimethoxyphenyl)-1H-imidazole (5) were studied by the method of agar dilution. Test solutions of each compound were prepared in concentration of 1% using dimethylformamide as a solvent then they are diluted in physiological solution to obtain the final experimental dilutions 1:100, 1:200, 1:400, 1:800. The effect of these substances were compared with furacillin in a controllable study. The testing microbes used were gram positive bacteria Staphylococcus aureus, gram negative bacteria Escherichia coli, Pseudomonas aeruginosa and Candida albicans fungi were taken. The experiments used for this survey were meat-pentonlu agar (EPA) for cultivation of bacteria and Saburo environment for fungi. Each experiment used 1 ml of test solution on each plate 500 min. Add 2 drops of emulsified with microbes feel. All experimental samples were taken from the agar after 10, 20, 40, 60 minutes in the environment on the basis of Patrk planted. Bacteria were cultivated at a temperature of 37° C. for 1 day and the mushroom was kept in a thermostat for […] at a temperature of 28° C. in the. Then results were checked.

Candida albicans = test: Antimicrobial testing by agar dilution, Candida albicans
Method: as §1

Pseudomonas aeruginosa = test: Antimicrobial testing by agar dilution, Pseudomonas aeruginosa; conditions: Ps. aeruginosa
Method: as §1

Staphylococcus aureus = test: Antimicrobial testing by agar dilution, Staphylococcus aureus; conditions: St. Aereus
Method: as §1

[1] = dilution rate 1:100, exposure time 10 min
[2] = dilution rate 1:100, exposure time 20 min
[3] = dilution rate 1:100, exposure time 40 min
[4] = dilution rate 1:100, exposure time 60 min
[5] = dilution rate 1:200, exposure time 10 min
[6] = dilution rate 1:200, exposure time 20 min
[7] = dilution rate 1:200, exposure time 40 min
[8] = dilution rate 1:200, exposure time 60 min
[9] = dilution rate 1:400, exposure time 10 min
[10] = dilution rate 1:400, exposure time 20 min
[11] = dilution rate 1:400, exposure time 40 min
[12] = dilution rate 1:400, exposure time 60 min
[13] = dilution rate 1:800, exposure time 10 min
[14] = dilution rate 1:800, exposure time 20 min
[15] = dilution rate 1:800, exposure time 40 min
[16] = dilution rate 1:800, exposure time 60 min

For NC(=O)N/N=C/c1ccc([N+](=O)[O-])o1 [Furacilin], the antimicrobial activity (Escherichia coli; [1]) was “−”, the antimicrobial activity (Escherichia coli; [2]) was “−” and the antimicrobial activity (Escherichia coli; [3]) was “−”. The antimicrobial activity (Escherichia coli; [4]) was “−”, the antimicrobial activity (Escherichia coli; [5]) was “+” and the antimicrobial activity (Escherichia coli; [6]) was “+”. The antimicrobial activity (Escherichia coli; [7]) was “+”, the antimicrobial activity (Escherichia coli; [8]) was “+” and the antimicrobial activity (Escherichia coli; [9]) was “+”. For the same molecule, the antimicrobial activity (Escherichia coli; [10]) was “+”, the antimicrobial activity (Escherichia coli; [11]) was “+” and the antimicrobial activity (Escherichia coli; [12]) was “+”. For the same molecule, the antimicrobial activity (Escherichia coli; [13]) was “+”, the antimicrobial activity (Escherichia coli; [14]) was “+” and the antimicrobial activity (Escherichia coli; [15]) was “+”. For the same molecule, the antimicrobial activity (Escherichia coli; [16]) was “+”, the antimicrobial activity (Candida albicans; [1]) was “−” and the antimicrobial activity (Candida albicans; [2]) was “−”. The antimicrobial activity (Candida albicans; [3]) was “+”, the antimicrobial activity (Candida albicans; [4]) was “+” and the antimicrobial activity (Candida albicans; [5]) was “+”. For the same molecule, the antimicrobial activity (Candida albicans; [6]) was “+”, the antimicrobial activity (Candida albicans; [7]) was “+” and the antimicrobial activity (Candida albicans; [8]) was “+”. The antimicrobial activity (Candida albicans; [9]) was “+”, the antimicrobial activity (Candida albicans; [10]) was “+” and the antimicrobial activity (Candida albicans; [11]) was “+”. The antimicrobial activity (Candida albicans; [12]) was “+”, the antimicrobial activity (Candida albicans; [13]) was “+” and the antimicrobial activity (Candida albicans; [14]) was “+”. The antimicrobial activity (Candida albicans; [15]) was “+”, the antimicrobial activity (Candida albicans; [16]) was “+” and the antimicrobial activity (Pseudomonas aeruginosa; [1]) was “+”. The antimicrobial activity (Pseudomonas aeruginosa; [2]) was “+”, the antimicrobial activity (Pseudomonas aeruginosa; [3]) was “+” and the antimicrobial activity (Pseudomonas aeruginosa; [4]) was “+”. The antimicrobial activity (Pseudomonas aeruginosa; [5]) was “+”, the antimicrobial activity (Pseudomonas aeruginosa; [6]) was “+” and the antimicrobial activity (Pseudomonas aeruginosa; [7]) was “+”. The antimicrobial activity (Pseudomonas aeruginosa; [8]) was “+”, the antimicrobial activity (Pseudomonas aeruginosa; [9]) was “+” and the antimicrobial activity (Pseudomonas aeruginosa; [10]) was “+”. For the same molecule, the antimicrobial activity (Pseudomonas aeruginosa; [11]) was “+”, the antimicrobial activity (Pseudomonas aeruginosa; [12]) was “+” and the antimicrobial activity (Pseudomonas aeruginosa; [13]) was “+”. The antimicrobial activity (Pseudomonas aeruginosa; [14]) was “+”, the antimicrobial activity (Pseudomonas aeruginosa; [15]) was “+” and the antimicrobial activity (Pseudomonas aeruginosa; [16]) was “+”. For the same molecule, the antimicrobial activity (Staphylococcus aureus; [1]) was “−”, the antimicrobial activity (Staphylococcus aureus; [2]) was “−” and the antimicrobial activity (Staphylococcus aureus; [3]) was “−”. The antimicrobial activity (Staphylococcus aureus; [4]) was “−”, the antimicrobial activity (Staphylococcus aureus; [5]) was “+” and the antimicrobial activity (Staphylococcus aureus; [6]) was “+”. For the same molecule, the antimicrobial activity (Staphylococcus aureus; [7]) was “+”, the antimicrobial activity (Staphylococcus aureus; [8]) was “+” and the antimicrobial activity (Staphylococcus aureus; [9]) was “+”. For the same molecule, the antimicrobial activity (Staphylococcus aureus; [10]) was “+”, the antimicrobial activity (Staphylococcus aureus; [11]) was “+” and the antimicrobial activity (Staphylococcus aureus; [12]) was “+”. The antimicrobial activity (Staphylococcus aureus; [13]) was “+”, the antimicrobial activity (Staphylococcus aureus; [14]) was “+” and the antimicrobial activity (Staphylococcus aureus; [15]) was “+”. For the same molecule, the antimicrobial activity (Staphylococcus aureus; [16]) was “+”.
